Experimental data: PubChem BioAssay AID504793 (Drosophila RNAi Screening Center, 2011)

Aim: 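Whole-genome screen for parts of the DNA damage checkpoint at G2/M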 (primary screen)
Cells: Drosophila S2R+ cells
Knock-down reagent: long dsRNA against Drosophila genes, about 0.25 µg dsRNA per well
Timing: 4 days of dsRNA, then 4 hours of drug before read-out
Challenge: doxorubicin 0.5 µM for 4 hours to cause double-strand breaks, in cells also given a low, harmless dose of dsRNA against nbs to sensitise the assay
Read-out: 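Per-well count of mitotic cells stained for phospho-histone H3 after doxorubicin exposure, used as mitotic index; counts are raw and not normalised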
Reading the numbers: mitotic cells: higher = more cells in mitosis, weaker G2 arrest
Call rule: 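a call needs confirmation in secondary tests, with other dsRNAs and a check of mitotic timing without damage, not just a high primary count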
Meaning of the calls: active = confirmed in follow-up tests; inactive = not confirmed
In all, the deposit lists about 23,000 reagents; below is a random part of those that have a named target and a result. Over the whole deposit, 62 (0.27%) got an active call. 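Calls come from follow-up tests whose scores are not deposited, so confirmed genes may have low counts here; counts are not normalised per plate.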 The raw values are shown without normalisation. A plus sign joins genes that one reagent is predicted to hit. No sequences are given here.

| gene | dsRNA | mitotic cells, replicate 1 | Call |
| --- | --- | --- | --- |
| Drak (Death-associated protein kinase related) | DRSC19778 | 21 | inactive |
| Drak (Death-associated protein kinase related) | DRSC23298 | 10 | inactive |
| Drak (Death-associated protein kinase related) | DRSC28871 | 14 | inactive |
| CG11248 | DRSC11644 | 10 | inactive |
| Dhc64C (Dynein heavy chain 64C) | DRSC08656 | 60 | inactive |
| Dhc64C (Dynein heavy chain 64C) | DRSC25497 | 128 | inactive |
| CG8087 | DRSC16375 | 3 | inactive |
| CG8087 | DRSC26924 | 13 | inactive |
| Gart (GART trifunctional enzyme) | DRSC03481 | 3 | inactive |
| Gart (GART trifunctional enzyme) | DRSC25995 | 5 | inactive |
| Pka-C2 (Protein kinase, cAMP-dependent, catalytic subunit 2) | DRSC16790 | 11 | inactive |
| Pka-C2 (Protein kinase, cAMP-dependent, catalytic subunit 2) | DRSC23310 | 11 | inactive |
| Pka-C2 (Protein kinase, cAMP-dependent, catalytic subunit 2) | DRSC29076 | 3 | inactive |
| CG8500 | DRSC16434 | 3 | inactive |
| CG8500 | DRSC27083 | 10 | inactive |
| CG17707 | DRSC20650 | 6 | inactive |
| CG31650 | DRSC03140 | 15 | inactive |
| CG31650 | DRSC28972 | 4 | inactive |
| CG7029 | DRSC16177 | 12 | inactive |
| CG7029 | DRSC23898 | 9 | inactive |
| Tdg (Thymine DNA glycosylase) | DRSC17119 | 6 | inactive |
| Tdg (Thymine DNA glycosylase) | DRSC17169 | 20 | inactive |
| GstE13 (Glutathione S transferase E13) | DRSC06083 | 6 | inactive |
| CG3927 + nsr | DRSC27267 | 9 | inactive |
| CG4374 | DRSC15570 | 9 | inactive |
| CG4374 | DRSC27482 | 6 | inactive |
| CG15800 | DRSC04271 | 8 | inactive |
| aqz (aaquetzalli) | DRSC16570 | 4 | inactive |
| aqz (aaquetzalli) | DRSC25042 | 11 | inactive |
| CG14990 | DRSC08449 | 6 | inactive |
| CG13144 | DRSC02241 | 4 | inactive |
| GatA (Glutamyl-tRNA amidotransferase, subunit A) | DRSC16956 | 10 | inactive |
| CG15330 | DRSC18014 | 12 | inactive |
| CG6470 | DRSC19994 | 2 | inactive |
| CG6470 | DRSC27690 | 7 | inactive |
| CG15394 | DRSC00408 | 10 | inactive |
| vls (valois) | DRSC02101 | 3 | inactive |
| vls (valois) | DRSC27088 | 11 | inactive |
| EloC (Elongin C) | DRSC07423 | 2 | inactive |
| EloC (Elongin C) | DRSC29393 | 1 | inactive |
| sut3 (sugar transporter 3) | DRSC07702 | 7 | inactive |
| sut3 (sugar transporter 3) | DRSC24322 | 4 | inactive |
| CG13409 | DRSC14585 | 12 | inactive |
| Cpr78Cb (Cuticular protein 78Cb) | DRSC11847 | 5 | inactive |
| Cpr78Cb (Cuticular protein 78Cb) | DRSC26957 | 3 | inactive |
| CG34107 | DRSC14554 | 3 | inactive |
| TfIIFalpha (Transcription factor IIFalpha) | DRSC12608 | 10 | inactive |
| TfIIFalpha (Transcription factor IIFalpha) | DRSC26379 | 6 | inactive |
| mv (mauve) | DRSC08208 | 2 | inactive |
| mv (mauve) | DRSC08570 | 8 | inactive |
| mv (mauve) | DRSC28733 | 5 | inactive |
| CG7786 | DRSC07045 | 3 | inactive |
| CG7786 | DRSC26604 | 2 | inactive |
| Pyroxd1 (Pyridine nucleotide-disulfide oxidoreductase domain 1) | DRSC02098 | 2 | inactive |
| CG44001 + CG33995 | DRSC00853 | 7 | inactive |
| CG44001 + CG33995 | DRSC02898 | 5 | inactive |
| Npc2f (Niemann-Pick type C-2f) | DRSC15980 | 3 | inactive |
| CG14377 + CG14374 | DRSC26405 | 5 | inactive |
| CG15236 | DRSC23025 | 7 | inactive |
| CG15236 | DRSC25883 | 7 | inactive |
| l(2)34Fd (lethal (2) 34Fd) | DRSC01911 | 13 | inactive |

No new results follow: entries from further up.
| gene | dsRNA | mitotic cells, replicate 1 | Call |
| --- | --- | --- | --- |
| Cpr78Cb (Cuticular protein 78Cb) | DRSC11847 | 5 | inactive |
| Cpr78Cb (Cuticular protein 78Cb) | DRSC26957 | 3 | inactive |
| CG34107 | DRSC14554 | 3 | inactive |
| TfIIFalpha (Transcription factor IIFalpha) | DRSC12608 | 10 | inactive |
| TfIIFalpha (Transcription factor IIFalpha) | DRSC26379 | 6 | inactive |
| mv (mauve) | DRSC08208 | 2 | inactive |
| mv (mauve) | DRSC08570 | 8 | inactive |
| mv (mauve) | DRSC28733 | 5 | inactive |
| CG7786 | DRSC07045 | 3 | inactive |
| CG7786 | DRSC26604 | 2 | inactive |
| Pyroxd1 (Pyridine nucleotide-disulfide oxidoreductase domain 1) | DRSC02098 | 2 | inactive |
| CG44001 + CG33995 | DRSC00853 | 7 | inactive |
| CG44001 + CG33995 | DRSC02898 | 5 | inactive |
| Npc2f (Niemann-Pick type C-2f) | DRSC15980 | 3 | inactive |
| CG14377 + CG14374 | DRSC26405 | 5 | inactive |
| CG15236 | DRSC23025 | 7 | inactive |
| CG15236 | DRSC25883 | 7 | inactive |

The listing continues.
| gene | dsRNA | mitotic cells, replicate 1 | Call |
| --- | --- | --- | --- |
| CG33017 | DRSC06573 | 7 | inactive |
| CG33017 | DRSC06574 | 6 | inactive |
| Arr1 (Arrestin 1) | DRSC01867 | 5 | inactive |
| CG10470 | DRSC02061 | 5 | inactive |
| CG15096 | DRSC06525 | 7 | inactive |
| CG15096 | DRSC29737 | 16 | inactive |
| Tsp39D (Tetraspanin 39D) | DRSC03099 | 5 | inactive |
| PNUTS (Phosphatase 1 nuclear targeting subunit) | DRSC00638 | 6 | inactive |
| PNUTS (Phosphatase 1 nuclear targeting subunit) | DRSC23503 | 10 | inactive |
| CG7668 | DRSC10901 | 12 | inactive |
| CR11386 + CR33222 | DRSC17781 | 6 | inactive |
| CR11386 + CR33222 | DRSC23991 | 4 | inactive |
| CG32445 | DRSC11678 | 15 | inactive |
| CG17127 | DRSC02581 | 9 | inactive |
| CG17127 | DRSC28608 | 6 | inactive |
| CG11816 | DRSC19428 | 11 | inactive |
| CG11816 | DRSC23612 | 7 | inactive |
| CG9692 | DRSC11091 | 5 | inactive |
| CG14115 | DRSC10118 | 9 | inactive |
| car (carnation) | DRSC20316 | 7 | inactive |
| car (carnation) | DRSC26230 | 5 | inactive |
| CG17385 | DRSC06664 | 5 | inactive |
| CG17385 | DRSC26999 | 3 | inactive |
| gammaCOP (Coat Protein (coatomer) gamma) | DRSC16955 | 17 | inactive |
| CG33998 | DRSC05747 | 12 | inactive |
| CG17600 | DRSC20640 | 5 | inactive |
| CG17600 | DRSC22753 | 6 | inactive |
| CG17600 | DRSC27203 | 4 | inactive |
| stil (stand still) | DRSC07699 | 6 | inactive |
| CG4988 | DRSC02800 | 4 | inactive |
| CG16888 | DRSC02541 | 3 | inactive |
| Bin1 (Bicoid interacting protein 1) | DRSC16843 | 5 | inactive |
| CG12182 | DRSC08142 | 4 | inactive |
| Clic (Chloride intracellular channel) | DRSC19364 | 7 | inactive |
| Lztr1 (Leucine zipper like transcription regulator 1) | DRSC18176 | 20 | inactive |
| Lztr1 (Leucine zipper like transcription regulator 1) | DRSC18647 | 21 | inactive |
| Lztr1 (Leucine zipper like transcription regulator 1) | DRSC26706 | 16 | inactive |
| ATPsynO (ATP synthase, oligomycin sensitivity conferring protein) | DRSC16780 | 8 | inactive |
| ATPsynO (ATP synthase, oligomycin sensitivity conferring protein) | DRSC26306 | 3 | inactive |
| Acp62F (Accessory gland protein 62F) | DRSC08136 | 7 | inactive |
| CG14370 | DRSC14832 | 4 | inactive |
| CG42521 | DRSC10154 | 4 | inactive |
| ClC-b (Chloride channel-b) | DRSC07220 | 9 | inactive |
| CG13731 | DRSC10059 | 2 | inactive |
| CG13731 | DRSC27584 | 13 | inactive |
| blot (bloated tubules) | DRSC09485 | 10 | inactive |
| blot (bloated tubules) | DRSC11328 | 7 | inactive |
| blot (bloated tubules) | DRSC26157 | 3 | inactive |
| CG9801 | DRSC16568 | 3 | inactive |
